# Assay results: the supplement of paper PMC8728848
# The other results are listed elsewhere or left out.
# B1: Mermaid2 (Stilbonema majum) (protein)
# chain: MGSSHHHHHHSSGLVPRGSHMAASGWLRSPQGTVVKLYRRSLSWSKADEFCKDVDGRLVVDRTADMHLFLIKNVLKEKKSRVWVGLRRTAPHSRTWIWSDGTRQNEDDLNTNLWLRDEPNDAAGEEECALFMYSPWEKAWGLNDYLCRGGCRSYQFICEKGIR
# Experiments:
# Test in all cases: glycan array binding signal (z-score within array); higher = stronger binding
# Conditions in all cases: glycan notation: IUPAC condensed, linker removed
# [1] = target: Neu5Ac(a2-8)Neu5Ac
# How it was run: (§1)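 The binding signal is a Z-score computed within each array. Data were drawn from 3228 arrays in the Consortium for Functional Glycomics database, restricted to those with a known protein sequence. Scores were averaged over arrays of the same protein sequence at different concentrations or buffers, and over linkers, and negative values can be taken as non-binding.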
# [2] = target: Neu5Ac(a2-8)Neu5Ac(a2-3)Gal(b1-3)GalNAc(b1-4)[Neu5Ac(a2-3)]Gal(b1-4)Glc
# How it was run: as §1
# [3] = target: Neu5Ac(a2-8)Neu5Ac(a2-3)Gal(b1-3)GalNAc(b1-4)[Neu5Ac(a2-8)Neu5Ac(a2-3)]Gal(b1-4)Glc
# How it was run: as §1
# [4] = target: Neu5Ac(a2-8)Neu5Ac(a2-3)Gal(b1-4)Glc
# How it was run: as §1
# [5] = target: Neu5Ac(a2-8)Neu5Ac(a2-3)Gal(b1-4)GlcNAc
# How it was run: as §1
# [6] = target: Neu5Ac(a2-8)Neu5Ac(a2-3)[Gal(b1-3)GalNAc(b1-4)]Gal(b1-4)Glc
# How it was run: as §1
# [7] = target: Neu5Ac(a2-8)Neu5Ac(a2-3)[GalNAc(b1-4)]Gal(b1-4)Glc
# How it was run: as §1
# [8] = target: Neu5Ac(a2-8)Neu5Ac(a2-8)Neu5Ac
# How it was run: as §1
# [9] = target: Neu5Ac(a2-8)Neu5Ac(a2-8)Neu5Ac(a2-3)Gal(b1-4)Glc
# How it was run: as §1
# [10] = target: Neu5Ac(a2-8)Neu5Ac(a2-8)Neu5Ac(a2-3)[Gal(b1-3)GalNAc(b1-4)]Gal(b1-4)Glc
# How it was run: as §1
# [11] = target: Neu5Ac(a2-8)Neu5Ac(a2-8)Neu5Ac(a2-3)[GalNAc(b1-4)]Gal(b1-4)Glc
# How it was run: as §1
# [12] = target: Neu5Ac(a2-8)Neu5Ac(a2-8)Neu5Ac(a2-8)Neu5Ac(a2-3)[GalNAc(b1-4)]Gal(b1-4)Glc
# How it was run: as §1
# [13] = target: Neu5Ac(a2-8)Neu5Gc(a2-3)Gal(b1-4)GlcNAc
# How it was run: as §1
# [14] = target: Neu5Ac(b2-6)Gal(b1-4)GlcNAc
# How it was run: as §1
# [15] = target: Neu5Ac(b2-6)GalNAc
# How it was run: as §1
# [16] = target: Neu5Ac9Ac(a2-3)Gal(b1-3)GlcNAc
# How it was run: as §1
# [17] = target: Neu5Ac9Ac(a2-3)Gal(b1-4)GlcNAc
# How it was run: as §1
# [18] = target: Neu5Ac9Ac(a2-6)Gal(b1-4)GlcNAc
# How it was run: as §1
# [19] = target: Neu5Gc(a2-3)Gal(b1-3)GlcNAc
# How it was run: as §1
# [20] = target: Neu5Gc(a2-3)Gal(b1-3)[Fuc(a1-4)]GlcNAc
# How it was run: as §1
# [21] = target: Neu5Gc(a2-3)Gal(b1-4)Glc
# How it was run: as §1
# [22] = target: Neu5Gc(a2-3)Gal(b1-4)GlcNAc
# How it was run: as §1
# [23] = target: Neu5Gc(a2-3)Gal(b1-4)GlcNAc(b1-3)Gal(b1-4)GlcNAc(b1-2)Man(a1-3)[Neu5Gc(a2-3)Gal(b1-4)GlcNAc(b1-3)Gal(b1-4)GlcNAc(b1-2)Man(a1-6)]Man(b1-4)GlcNAc(b1-4)GlcNAc
# How it was run: as §1
# [24] = target: Neu5Gc(a2-3)Gal(b1-4)[Fuc(a1-3)]GlcNAc
# How it was run: as §1
# [25] = target: Neu5Gc(a2-6)Gal(b1-4)GlcNAc
# How it was run: as §1
# [26] = target: Neu5Gc(a2-6)GalNAc
# How it was run: as §1
# [27] = target: Neu5Gc(a2-8)Neu5Ac(a2-3)Gal(b1-4)GlcNAc
# How it was run: as §1
# [28] = target: Neu5Gc(a2-8)Neu5Gc(a2-3)Gal(b1-4)GlcNAc
# How it was run: as §1
# [29] = target: Neu5Gc(a2-8)Neu5Gc(a2-3)Gal(b1-4)GlcNAc(b1-3)Gal(b1-4)GlcNAc
# How it was run: as §1
# [30] = target: Neu5Gc(a2-8)Neu5Gc(a2-6)Gal(b1-4)GlcNAc
# How it was run: as §1
# [31] = target: Neu5Gc(b2-6)Gal(b1-4)GlcNAc
# How it was run: as §1
binder,measurement,setting,value
B1,glycan array binding signal (z-score),[1],-0.705
same,glycan array binding signal (z-score),[2],-0.435
same,glycan array binding signal (z-score),[3],0.391
same,glycan array binding signal (z-score),[4],-0.787
same,glycan array binding signal (z-score),[5],-0.695
same,glycan array binding signal (z-score),[6],-0.406
same,glycan array binding signal (z-score),[7],-0.809
same,glycan array binding signal (z-score),[8],-0.557
same,glycan array binding signal (z-score),[9],-0.52
same,glycan array binding signal (z-score),[10],0.148
same,glycan array binding signal (z-score),[11],1.01
same,glycan array binding signal (z-score),[12],0.205
same,glycan array binding signal (z-score),[13],-0.795
same,glycan array binding signal (z-score),[14],-0.717
same,glycan array binding signal (z-score),[15],-0.52
same,glycan array binding signal (z-score),[16],-0.562
same,glycan array binding signal (z-score),[17],-0.505
same,glycan array binding signal (z-score),[18],2.34
same,glycan array binding signal (z-score),[19],-0.34
same,glycan array binding signal (z-score),[20],0.598
same,glycan array binding signal (z-score),[21],0.179
same,glycan array binding signal (z-score),[22],-0.794
same,glycan array binding signal (z-score),[23],-0.883
same,glycan array binding signal (z-score),[24],3.71
same,glycan array binding signal (z-score),[25],0.351
same,glycan array binding signal (z-score),[26],-0.111
same,glycan array binding signal (z-score),[27],-0.477
same,glycan array binding signal (z-score),[28],-0.635
same,glycan array binding signal (z-score),[29],-0.347
same,glycan array binding signal (z-score),[30],-0.365
same,glycan array binding signal (z-score),[31],-0.591

# An excerpt of these results, bar-delimited.
binder | measurement | setting | value
B1 | glycan array binding signal (z-score) | [11] | 1.01
same | glycan array binding signal (z-score) | [12] | 0.205
